Laboratory results from article PMC12273631.

Target: HaloTag::3xFLAG::TEV::OOPS-1A (C. elegans)
Assay: pull-down; tagged OOPS-1 and SPE-11 co-expressed in E. coli; lysate passed in turn over ANTI-FLAG M2 gel (3x FLAG peptide elution), HaloLink resin (HaloTEV cleavage) and anti-HA agarose (HA peptide elution); TBSN buffer (50 mM Tris-HCl pH 7.4, 150 mM NaCl, 0.05% NP-40); Coomassie-stained gel

- binding: binds
B1: S-tag::HA::PreScission::SPE-11 (protein, UniProt P54217 1-299)
chain: MSDEEIDISTALNNKTTPKKKSLKRNSNSQEGYESPEEREIVYPSVFGAIGTPMAKSDNAKEWDEWKEKERKKDKAEWKRYLRSKWDMTQGHLPLVSDSEFLKGRKEHKEYNSKARMDILDGLDEVNEGFFNCGKGAAMNIRYNDKNVSKKGAKKFVATVETAMKKAGNPTMEQMMTDDLDEDEARAEAEWERQREQRKLASRAYDAAMDEREDDAKYVPWDEYCQEMEELGKELKIGEKHYKKWLEKKMDENKVTHKFNAYQLDLKCLDEDAFSNKKSLKSVVRNVQKFYRKMREPKK

No constants are given. Whether binding was seen depends on the method and setting. In cells and extracts the contact can be indirect. A result given as binding can be weak or reduced; the word gives no strength. Sequences can lack the tags named with a protein.
